At least one peptide structure holds a part that was inferred or is arguable (an end, a ring closure or a residue). Bridge positions count the residues as written; N and C are the ends. Square brackets hold non-standard residues; d marks the D form. Peptide text beside a SMILES is read from it. S5 = C=CCCC[C@](C)(N)C(=O)O
Tested on: Nrf2
Assay: Dual luciferase assay, NQO1-ARE firefly / TK-Renilla reporter
Format: cell-based
Conditions: HEK-293T cells, 16 hours; 50 μM in FIG. 4A
Description: The results are averages from three replicates.
The peptides from Example 1 were screened for Nrf2 inhibition using a previously developed dual luciferase assay. Ren et al., Brusatol enhances the efficacy of chemotherapy by inhibiting the Nrf2-mediated defense mechanism, Biological Sciences 108(4): 1433-1438 (2011). Briefly, HEK-293T cells stably expressing ARE-firefly luciferase and TK-Renilla luciferase were used. The cells were treated with different concentrations of compounds N1 (SEQ ID NO: 3), N1 S (SEQ ID NO: 6), N2 (SEQ ID NO: 4), N2S (SEQ ID NO: 7), N3 (SEQ ID NO: 5), and N3S (SEQ ID NO: 8) for 16 hours. The cells were lysed in 1× passive lysis buffer, and both firefly luciferase and Renilla luciferase activities were measured using the Promega Dual-Luciferase™ Reporter (DLR™) Assay System and a luminometer (Turner Biosystems 20/20^n Luminometer). The samples were in triplicate for all concentrations of compounds (n=3).

| Structure (SMILES) | inhibition of Nrf2 activity |
| --- | --- |
| CC(=O)N[C@@H](CC(=O)O)C(=O)N[C@@H](CCC(=O)O)C(=O)N[C@@H](CCCCN)C(=O)N[C@@H](CCC(=O)O)C(=O)N[C@@H](CCCCN)C(=O)N[C@@H](CC(C)C)C(=O)N[C@@]1(C)CCCC=CCCC[C@@](C)(C(=O)N[C@@H](CCC(=O)O)C(=O)N[C@@H](CC(N)=O)C(=O)N[C@@H](CC(=O)O)C(=O)N[C@@H](CCCCN)C(=O)N[C@@H](CO)C(N)=O)NC(=O)[C@H](CCCCN)NC(=O)[C@H](CCC(=O)O)NC(=O)[C@H](CCCCN)NC1=O [N3S] (Ac-DEKEKL[S5]KEK[S5]ENDKS-NH2; staple 7-11) | lack of compound N2S and compound N3S activity |
| CC(=O)N[C@@H](CC(=O)O)C(=O)N[C@@H](CC(C)C)C(=O)N[C@@H](CC(=O)O)C(=O)N[C@@H](Cc1c[nH]cn1)C(=O)N[C@@H](CC(C)C)C(=O)N[C@@]1(C)CCCC=CCCC[C@@](C)(C(=O)N[C@@H](CCCCN)C(=O)N[C@@H](CC(C)C)C(=O)N[C@@H](CC(C)C)C(=O)N[C@@H](CCCCN)C(=O)N[C@@H](CCC(=O)O)C(=O)N[C@@H](CCCCN)C(N)=O)NC(=O)[C@H](CCCCN)NC(=O)[C@H](CCC(=O)O)NC(=O)[C@H](CC(=O)O)NC1=O [N2S] (Ac-DLDHL[S5]DEK[S5]KLLKEK-NH2; staple 6-10) | lack of compound N2S and compound N3S activity |

— patent publication US20260365698A1, “STAPLED PEPTIDES FOR SENSITIZATION OF CANCER TO TREATMENT” (Purdue Research Foundation, priority 2022, published 2026)
